This is an account of results in PubChem BioAssay AID445 (National Center for Advancing Translational Sciences (NCATS), 2006).

This is one part of the list. Further columns of the screen follow, without active or inactive calls. Most of these compounds were active or inconclusive in the main read-out, so they are no random draw. Potencies come from curve fits of mixed quality, noted in brackets.

A short description of the assay: IkB Signaling. The following applies: ABC-DLBCL IkBa-CBG/CBR dual luciferase ratio (green luciferase fused to IkBa over red control in OCI-Ly3 lymphoma cells), 4 h; measured here: control luc red channel unless noted. In a few lines: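 In this assay, an IκBα–CBG68 fusion accumulates when IKK-driven degradation is blocked; native CBR normalizes for cell number. OCI-Ly3 cells were treated 4 h with compound and doxycycline, then green and red light read after Chroma-Glo addition.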
For `O=S1(=O)c2cccc3cccc(c23)N1Cc1ccc(-c2nnco2)cc1`, the AC50 is 15.8 µM [falling, partial curve].
On to `COc1ccccc1CNC(=O)CCCn1c(=O)c2ccccc2n(Cc2ccc(F)cc2)c1=O`, for which the AC50 is 0.316 µM [falling, full curve, poor fit].
On to `COc1ccccc1Nc1nc(-c2ccc(F)cc2)c2c(n1)-c1ccccc1OC2`, for which the AC50 is 10 µM [falling, partial curve].
For the molecule `COc1ccccc1NC(=O)c1c(C)cc(C)nc1SCC(=O)Nc1ccc(C)c(C)c1`, the half-maximal activity concentration (AC50) is 1.26 µM [falling, partial curve].
Regarding `O=C(Nc1cccc(-c2nc3cccnc3s2)c1)c1ccco1`, the AC50 is 10 µM [falling, partial curve].
With `COc1ccc(C)cc1NC(=O)Cn1c(=O)oc2cc(S(=O)(=O)N3CCCCC3)ccc21`, the concentration at half-maximal activity (AC50) is 0.126 µM [falling, single point].
`Cc1ccc(Nc2ccc3cc(S(=O)(=O)N4CCCCC4)ccc3n2)cc1F`: the AC50 is 39.8 µM [falling, single point].
As for `Cc1nn(-c2ccccc2)c2sc(C(=O)N(Cc3ccco3)C(C)C(=O)NC(C)(C)C)cc12` (configuration not stated), the half-maximal activity concentration (AC50) is 20 µM [falling, partial curve].
As to `CCn1cc2nc(SCC(=O)Nc3ccc(OC)c(Cl)c3)n(Cc3ccc(OC)cc3)c(=O)c2n1`, the AC50 is 25.1 µM [falling, partial curve].
To `COc1ccc(-c2cc3nc(C)c(CCC(=O)NCc4ccccc4Cl)c(C)n3n2)c(OC)c1` belongs 0.501 µM [falling, full curve]; to `CC(=O)c1ccc(NC(=O)c2cn(-c3ccccc3)nc2-c2ccc(Br)cc2)cc1`, 15.8 µM [falling, partial curve].
Regarding `O=C(CCC1CCCC1)N1CCc2c([nH]c3ccccc23)C1c1ccc(F)cc1` (configuration not stated), the AC50 was 12.6 µM [falling, partial curve].
Consider `CCOc1ccc(NC(=O)NCCN2CCN(c3cccc(C)c3C)CC2)cc1`, for which the AC50 was 0.1 µM [falling, partial curve].
To `CCc1cccc(C)c1NC(=O)C1CCN(S(=O)(=O)c2c(C)noc2/C=C/c2c(C)cc(C)cc2C)CC1` belongs 0.316 µM [falling, full curve]; to `N#Cc1nc(COc2ccccc2Cl)oc1NCCc1ccccc1`, 39.8 µM [falling, single point]; to `Cc1ccc(C)c(-n2c(N)c(C#N)c3nc4ccccc4nc32)c1`, 12.6 µM [falling, partial curve].
Take `COc1cccc(CNc2cc(C)nc3nc(-c4ccc(C)cc4)nn23)c1`: the AC50 is 15.8 µM [falling, partial curve].

A word on the AC50: it is the midpoint of the concentration-response curve, whichever way the signal moves.
